This passage reports T/C and survivor count results from PubChem BioAssay AID256 (DTP/NCI, 2004).

The list shows only some results of the screen, not a fair sample: it is rich in T/C values a quarter to a half above the control, in often repeated tests (any T/C) and in doses without a T/C. Further doses and runs are listed elsewhere. T/C: endpoint of the treated group in % of that of the vehicle group. Some doses have a count of surviving animals in place of a T/C: the source files T/C as zero there, which appears to mark a toxic dose or a test without result, not a measured value. Some survivor counts are full or nearly so, which does not show that the dose was tolerated: survival well below the control is almost never listed, so the zero probably covers shortened survival too. Survivors were counted at the toxicity check, usually on the fifth day, unless a day is given; later deaths do not show. Schedule codes are those of the source, taken here to give the interval after Q, in days (D) or hours (H), and the number of doses after X. Some entries hold several experiments; the results are listed from low to high. Some schedules carry Z or #; the key to these is not given. For survival time, the PubChem record calls one and a half times the control and up active, and a quarter to a half above the control has no call in these data; cut-offs in other NCI protocols can differ. Counts like (3×) count equal records among those shown.

In the assay the test system is CD2F1 mice, L1210 leukemia ip, survival T/C. Nature of the assay: NCI In Vivo Anticancer Drug Screen. Data for tumor model L1210 Leukemia (intraperitoneal) in CD2F1 (CDF1) mice. The note with it: higher T/C = longer survival. A digest of the protocol:
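Ratio T/C, where T is the treated-group value and C the vehicle-dosed control value, from mice implanted with a transplantable tumor.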

Where [1] appears, read: T/C endpoint: mean survival time, dose: 200.0 mg/kg/injection, schedule: Q01DX009 (ip), vehicle: saline with Tween-80.
[2] abbreviates: T/C endpoint: mean survival time, dose: 400.0 mg/kg/injection, schedule: Q01DX009 (ip), vehicle: saline with Tween-80.
Where [3] appears, read: T/C endpoint: mean survival time, dose: 400.0 mg/kg/injection, schedule: Q04DX003 (ip), vehicle: saline with Tween-80.
The mark [4] stands for this setting: T/C endpoint: mean survival time, dose: 200.0 mg/kg/injection, schedule: Q04DX003 (ip), vehicle: saline with Tween-80.
Setting [5] is: T/C endpoint: mean survival time, dose: 400.0 mg/kg/injection, schedule: Q04DX003 (ip), vehicle: saline.

Turning to `O=C(O)CBr.O=C(O)CBr.[NH-]C1CCCCCCC1[NH-].[Pt+2]` (configuration not stated), the T/C is 132 % of control (T/C endpoint: mean survival time, dose: 37.5 mg/kg/injection, schedule: Q01DX001 (ip), vehicle: distilled water + Tween-80); 147 % of control (T/C endpoint: mean survival time, dose: 75.0 mg/kg/injection, schedule: Q01DX001 (ip), vehicle: distilled water + Tween-80); 145 % of control (T/C endpoint: mean survival time, dose: 150.0 mg/kg/injection, schedule: Q01DX001 (ip), vehicle: distilled water + Tween-80).

With `O=C(Nc1ccc(Br)c2c(NC(=O)c3ccccc3)ccc(Br)c12)c1ccccc1`, the survivor count is, setting by setting: under setting [1], 5 of 6; under setting [2], 6 of 6.

On to `C=C(C)CSc1ccccc1`, for which, for the setting “T/C endpoint: mean survival time, dose: 400.0 mg/kg/injection, schedule: Q01DX001 (ip), vehicle: saline”, the survivor count is on record as 1 of 6.

Take `CCCCCC(CN(C)C)C(=O)/C=C/c1ccc(Cl)c(Cl)c1` (configuration not stated): the survivor count was 1 of 6 (T/C endpoint: mean survival time, dose: 35.0 mg/kg/injection, schedule: Q01DX009 (ip), vehicle: saline); 0 of 6 (T/C endpoint: mean survival time, dose: 55.0 mg/kg/injection, schedule: Q01DX009 (ip), vehicle: saline); 0 of 6 (T/C endpoint: mean survival time, dose: 80.0 mg/kg/injection, schedule: Q01DX009 (ip), vehicle: saline).

`CN1CCN(c2ccc3nc(-c4ccc5nc(-c6ccc(O)cc6)[nH]c5c4)[nH]c3c2)CC1`: the T/C by setting is: (T/C endpoint: mean survival time, dose: 6.25 mg/kg/injection, schedule: Q01DX009 (ip), vehicle: saline) 130 % of control; (T/C endpoint: mean survival time, dose: 12.5 mg/kg/injection, schedule: Q01DX009 (ip), vehicle: saline) 142 % of control; (T/C endpoint: mean survival time, dose: 25.0 mg/kg/injection, schedule: Q01DX009 (ip), vehicle: saline) 142 % of control; (T/C endpoint: mean survival time, dose: 100.0 mg/kg/injection, schedule: Q01DX009 (ip), vehicle: saline) 134 % of control; (T/C endpoint: median survival time, dose: 12.5 mg/kg/injection, schedule: Q01DX009 (ip), vehicle: saline) 129 % of control; (T/C endpoint: median survival time, dose: 25.0 mg/kg/injection, schedule: Q01DX009 (ip), vehicle: saline, evaluated on day 30) 135 % of control. Also, the T/C is, setting by setting: (T/C endpoint: median survival time, dose: 25.0 mg/kg/injection, schedule: Q01DX009 (ip), vehicle: saline, evaluated on day 60) 125 and 137 % of control; (T/C endpoint: median survival time, dose: 37.0 mg/kg/injection, schedule: Q01DX005 (ip), vehicle: saline) 143 % of control; (T/C endpoint: median survival time, dose: 44.0 mg/kg/injection, schedule: Q01DX009 (ip), vehicle: saline, evaluated on day 45) 197 and 555 % of control; (T/C endpoint: median survival time, dose: 44.0 mg/kg/injection, schedule: Q01DX009 (ip), vehicle: saline, evaluated on day 60) 127 and 722 % of control; (T/C endpoint: median survival time, dose: 50.0 mg/kg/injection, schedule: Q01DX009 (ip), vehicle: saline) 142 % of control; (T/C endpoint: median survival time, dose: 67.0 mg/kg/injection, schedule: Q01DX009 (ip), vehicle: saline, evaluated on day 45) 555 % of control (2×). Also, the T/C (T/C endpoint: median survival time, dose: 67.0 mg/kg/injection, schedule: Q01DX009 (ip), vehicle: saline, evaluated on day 60) is 139 and 722 % of control; the T/C (T/C endpoint: median survival time, dose: 100.0 mg/kg/injection, schedule: Q01DX009 (ip), vehicle: saline, evaluated on day 30) is 344 % of control; the T/C (T/C endpoint: median survival time, dose: 100.0 mg/kg/injection, schedule: Q01DX009 (ip), vehicle: saline, evaluated on day 45) is 555 % of control (2×); the T/C (T/C endpoint: median survival time, dose: 100.0 mg/kg/injection, schedule: Q01DX009 (ip), vehicle: saline, evaluated on day 60) is 185, 391, 618, 722 % of control; the T/C (T/C endpoint: median survival time, dose: 125.0 mg/kg/injection, schedule: Q01DX009 (ip), vehicle: saline, evaluated on day 45) was 555 % of control (2×); the T/C (T/C endpoint: median survival time, dose: 125.0 mg/kg/injection, schedule: Q01DX009 (ip), vehicle: saline, evaluated on day 60) was 156 and 722 % of control. Moreover, the survivor count is 4 of 6 and 5 of 6 (T/C endpoint: mean survival time, dose: 200.0 mg/kg/injection, schedule: Q01DX009 (ip), vehicle: saline); 0 of 6 (T/C endpoint: median survival time, dose: 75.0 mg/kg/injection, schedule: Q01DX005 (iv), vehicle: saline); 0 of 6 (T/C endpoint: median survival time, dose: 150.0 mg/kg/injection, schedule: Q01DX005 (iv), vehicle: saline); 6 of 10 (T/C endpoint: median survival time, dose: 200.0 mg/kg/injection, schedule: Q01DX009 (ip), vehicle: saline); 2 of 6 (T/C endpoint: median survival time, dose: 300.0 mg/kg/injection, schedule: Q01DX005 (ip), vehicle: saline); 0 of 6 (T/C endpoint: median survival time, dose: 300.0 mg/kg/injection, schedule: Q01DX005 (iv), vehicle: saline).

For the compound `CN(Cc1ccccc1)N=Nc1ccc(C(=O)O)cc1`, the survivor count by setting is: (T/C endpoint: mean survival time, dose: 200.0 mg/kg/injection, schedule: Q01DX009 (ip), vehicle: other) 1 of 3; (T/C endpoint: mean survival time, dose: 400.0 mg/kg/injection, schedule: Q01DX009 (ip), vehicle: other) 0 of 3.

`CSc1ccc(OC(=O)Nc2ccccc2F)cc1`: the survivor count under setting [3] was 6 of 6.

With `[O-][n+]1cc(-c2ccccc2)cc2ccccc21`, the survivor count under setting [4] is recorded as 0 of 6.

Regarding `Cc1ccc(NC(=O)ON(C)C)cc1`, the survivor count (T/C endpoint: mean survival time, dose: 200.0 mg/kg/injection, schedule: Q04DX002 (ip), vehicle: other) is given as 0 of 3 and the survivor count (T/C endpoint: mean survival time, dose: 400.0 mg/kg/injection, schedule: Q04DX002 (ip), vehicle: other) is reported as 0 of 3.

As for `O=C(CI)Nc1ccc(Br)cc1`, the survivor count is, setting by setting: (T/C endpoint: mean survival time, dose: 100.0 mg/kg/injection, schedule: Q04DX003 (ip), vehicle: saline) 5 of 6; (T/C endpoint: mean survival time, dose: 200.0 mg/kg/injection, schedule: Q04DX003 (ip), vehicle: saline) 0 of 6; under setting [5], 0 of 6.

For the compound `CN(C)N=Nc1ccc(Cl)cc1`, the survivor count was 4 of 6 (T/C endpoint: mean survival time, dose: 177.0 mg/kg/injection, schedule: Q01DX009 (ip), vehicle: Klucel (hydroxypropylcellulose) (HPC)); 0 of 6 (T/C endpoint: mean survival time, dose: 266.0 mg/kg/injection, schedule: Q01DX009 (ip), vehicle: Klucel (hydroxypropylcellulose) (HPC)); 0 of 6 (T/C endpoint: mean survival time, dose: 400.0 mg/kg/injection, schedule: Q01DX009 (ip), vehicle: Klucel (hydroxypropylcellulose) (HPC)).

With `CN=C(N)c1ccc(N=C(N)c2ccc(N=C(N)c3ccc(NC(=O)c4ccc(C(=O)Nc5ccc(C(N)=Nc6ccc(C(N)=Nc7ccc(C(N)=NC)cc7)cc6)cc5)cc4)cc3)cc2)cc1`, the survivor count runs as follows: (T/C endpoint: mean survival time, dose: 125.0 mg/kg/injection, schedule: Q01DX Z (ip), vehicle: water) 2 of 6; (T/C endpoint: mean survival time, dose: 250.0 mg/kg/injection, schedule: Q01DX Z (ip), vehicle: water) 0 of 6; (T/C endpoint: mean survival time, dose: 500.0 mg/kg/injection, schedule: Q01DX Z (ip), vehicle: water) 0 of 6.

Turning to `O=C(NNC(=O)OCC(Cl)(Cl)Cl)OCC(Cl)(Cl)Cl`, the survivor count is 1 of 6 under setting [4] and 2 of 6 under setting [3].

In the case of `O=[N+]([O-])c1cc(Cl)ccc1O`, under setting [2], the survivor count is 1 of 6.

Take `COc1cc(OC)c(C(=O)CCl)c(O)c1Cl`: the survivor count is, setting by setting: under setting [1], 0 of 6; under setting [2], 0 of 6.

For the compound `Cc1cc(C)n(C(=S)[S-])n1.Cc1cc(C)n(C(=S)[S-])n1.[Pt+2]`, the survivor count is recorded as 6 of 6 under setting [4] and 6 of 6 under setting [3].

For the compound `Nc1cc(=O)[nH]c(=S)[nH]1`, the survivor count (T/C endpoint: mean survival time, dose: 400.0 mg/kg/injection, schedule: Q04DX002 (ip), vehicle: saline with Tween-80) is listed as 0 of 3.

On to `COC(=O)c1cc([N+](=O)[O-])c(Sc2ncnc3nc[nH]c23)c([N+](=O)[O-])c1`, for which the T/C (T/C endpoint: mean survival time, dose: 25.0 mg/kg/injection, schedule: Q01DX005 (ip), vehicle: other) was 139 % of control. Moreover, the survivor count runs as follows: (T/C endpoint: mean survival time, dose: 37.5 mg/kg/injection, schedule: Q01DX005 (ip), vehicle: other) 3 of 6; (T/C endpoint: mean survival time, dose: 100.0 mg/kg/injection, schedule: Q01DX005 (ip), vehicle: other) 2 of 3; (T/C endpoint: mean survival time, dose: 200.0 mg/kg/injection, schedule: Q01DX005 (ip), vehicle: other) 0 of 3.

Regarding `Cc1cc2oc(=O)cc(N3CCOCC3)c2c(=O)o1`, the survivor count under setting [3] is recorded as 4 of 6.

`C1=CC(=C(C2CCC(Nc3ccccc3)CC2)C2CCC(Nc3ccccc3)CC2)C=CC1=Nc1ccccc1` (configuration not stated): the survivor count under setting [5] was 3 of 6.
